From the supplement of paper PMC10849652
This is one part of the list.

Chains of the proteins cited; added tags and fusions are not shown. Lines headed by an entry give the natural chain unless they say otherwise; changes in a name come on top.
UniProt P23677, whole entry, looked up: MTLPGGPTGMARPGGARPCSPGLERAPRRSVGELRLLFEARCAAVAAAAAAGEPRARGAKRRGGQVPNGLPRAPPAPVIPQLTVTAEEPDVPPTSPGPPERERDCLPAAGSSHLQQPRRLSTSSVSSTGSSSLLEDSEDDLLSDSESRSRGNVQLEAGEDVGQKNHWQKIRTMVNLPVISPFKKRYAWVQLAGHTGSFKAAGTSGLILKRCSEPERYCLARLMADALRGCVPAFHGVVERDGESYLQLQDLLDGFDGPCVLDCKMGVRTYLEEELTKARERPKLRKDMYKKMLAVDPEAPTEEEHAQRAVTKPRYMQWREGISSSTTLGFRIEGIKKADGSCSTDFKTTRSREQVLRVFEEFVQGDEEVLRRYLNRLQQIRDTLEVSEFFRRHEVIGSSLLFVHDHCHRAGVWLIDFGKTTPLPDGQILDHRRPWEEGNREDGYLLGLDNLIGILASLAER
UniProt P53990, whole entry, looked up: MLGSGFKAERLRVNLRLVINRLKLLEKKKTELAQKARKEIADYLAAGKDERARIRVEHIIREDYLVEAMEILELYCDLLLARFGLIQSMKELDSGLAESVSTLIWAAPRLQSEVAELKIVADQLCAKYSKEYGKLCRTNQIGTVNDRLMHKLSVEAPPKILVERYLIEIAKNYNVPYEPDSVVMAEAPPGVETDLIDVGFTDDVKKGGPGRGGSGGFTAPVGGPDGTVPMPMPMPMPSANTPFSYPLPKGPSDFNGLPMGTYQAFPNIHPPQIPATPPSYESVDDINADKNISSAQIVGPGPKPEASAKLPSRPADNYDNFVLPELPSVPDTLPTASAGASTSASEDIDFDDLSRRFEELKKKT
UniProt Q9UK76: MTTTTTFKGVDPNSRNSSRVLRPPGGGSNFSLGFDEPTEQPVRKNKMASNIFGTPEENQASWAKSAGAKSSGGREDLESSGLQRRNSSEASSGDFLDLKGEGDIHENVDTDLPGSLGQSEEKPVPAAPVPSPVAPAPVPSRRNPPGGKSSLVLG
UniProt O15397, whole entry, looked up: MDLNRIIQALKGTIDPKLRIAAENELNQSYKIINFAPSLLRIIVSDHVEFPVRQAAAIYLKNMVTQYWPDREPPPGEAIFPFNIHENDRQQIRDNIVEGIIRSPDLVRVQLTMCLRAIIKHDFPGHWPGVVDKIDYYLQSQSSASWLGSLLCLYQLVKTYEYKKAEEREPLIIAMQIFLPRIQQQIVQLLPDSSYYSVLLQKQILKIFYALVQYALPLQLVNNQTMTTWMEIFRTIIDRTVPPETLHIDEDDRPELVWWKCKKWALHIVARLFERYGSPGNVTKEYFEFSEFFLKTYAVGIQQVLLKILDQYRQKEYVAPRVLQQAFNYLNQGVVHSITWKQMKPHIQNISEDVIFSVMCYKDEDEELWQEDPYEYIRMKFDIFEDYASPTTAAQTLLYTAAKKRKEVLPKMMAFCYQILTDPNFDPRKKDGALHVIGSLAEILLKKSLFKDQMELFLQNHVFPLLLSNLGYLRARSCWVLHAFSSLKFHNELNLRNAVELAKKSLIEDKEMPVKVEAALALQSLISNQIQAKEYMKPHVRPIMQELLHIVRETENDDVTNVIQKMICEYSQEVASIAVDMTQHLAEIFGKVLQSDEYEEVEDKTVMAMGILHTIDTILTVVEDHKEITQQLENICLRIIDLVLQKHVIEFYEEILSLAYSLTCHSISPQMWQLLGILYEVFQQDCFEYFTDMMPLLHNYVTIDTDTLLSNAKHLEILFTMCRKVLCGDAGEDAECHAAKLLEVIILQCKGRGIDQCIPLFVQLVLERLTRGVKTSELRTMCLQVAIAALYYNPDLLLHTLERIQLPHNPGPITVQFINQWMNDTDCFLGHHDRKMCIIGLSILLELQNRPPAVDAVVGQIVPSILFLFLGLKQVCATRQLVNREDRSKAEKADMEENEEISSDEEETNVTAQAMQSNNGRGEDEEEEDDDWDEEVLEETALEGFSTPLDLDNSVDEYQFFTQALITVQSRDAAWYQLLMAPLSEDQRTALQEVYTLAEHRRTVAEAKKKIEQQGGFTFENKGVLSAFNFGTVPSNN
UniProt O94829: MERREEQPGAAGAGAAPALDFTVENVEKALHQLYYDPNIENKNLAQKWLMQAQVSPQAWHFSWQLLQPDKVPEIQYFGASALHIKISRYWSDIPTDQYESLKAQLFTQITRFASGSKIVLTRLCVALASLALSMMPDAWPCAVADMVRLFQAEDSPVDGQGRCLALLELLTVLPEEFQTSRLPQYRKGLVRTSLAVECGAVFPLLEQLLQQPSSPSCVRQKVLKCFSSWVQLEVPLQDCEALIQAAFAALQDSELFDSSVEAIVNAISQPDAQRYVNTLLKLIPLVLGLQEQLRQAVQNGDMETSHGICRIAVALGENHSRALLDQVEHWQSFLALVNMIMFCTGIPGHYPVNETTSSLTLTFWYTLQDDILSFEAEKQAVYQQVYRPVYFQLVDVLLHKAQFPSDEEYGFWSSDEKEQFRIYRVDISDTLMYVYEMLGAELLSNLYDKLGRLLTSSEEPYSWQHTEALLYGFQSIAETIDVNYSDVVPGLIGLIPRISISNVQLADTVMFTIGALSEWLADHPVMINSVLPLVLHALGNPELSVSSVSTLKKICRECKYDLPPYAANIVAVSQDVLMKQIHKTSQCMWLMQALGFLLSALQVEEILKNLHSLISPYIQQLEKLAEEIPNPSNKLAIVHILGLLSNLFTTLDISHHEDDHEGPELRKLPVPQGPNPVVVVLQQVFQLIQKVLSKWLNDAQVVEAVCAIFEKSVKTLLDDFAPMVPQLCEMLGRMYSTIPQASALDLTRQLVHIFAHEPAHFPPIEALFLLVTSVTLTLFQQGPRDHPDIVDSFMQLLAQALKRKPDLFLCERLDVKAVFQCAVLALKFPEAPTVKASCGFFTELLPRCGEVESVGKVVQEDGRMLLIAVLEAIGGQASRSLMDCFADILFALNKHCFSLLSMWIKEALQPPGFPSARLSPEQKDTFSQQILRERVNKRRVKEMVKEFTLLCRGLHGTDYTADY
UniProt Q9NXV2: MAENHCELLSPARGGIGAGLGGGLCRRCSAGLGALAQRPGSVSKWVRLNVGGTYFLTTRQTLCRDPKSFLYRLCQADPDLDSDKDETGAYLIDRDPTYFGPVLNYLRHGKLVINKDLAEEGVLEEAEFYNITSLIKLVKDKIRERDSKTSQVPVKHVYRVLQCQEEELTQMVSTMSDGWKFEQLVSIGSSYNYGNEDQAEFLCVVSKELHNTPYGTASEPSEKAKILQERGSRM
UniProt Q7LBC6: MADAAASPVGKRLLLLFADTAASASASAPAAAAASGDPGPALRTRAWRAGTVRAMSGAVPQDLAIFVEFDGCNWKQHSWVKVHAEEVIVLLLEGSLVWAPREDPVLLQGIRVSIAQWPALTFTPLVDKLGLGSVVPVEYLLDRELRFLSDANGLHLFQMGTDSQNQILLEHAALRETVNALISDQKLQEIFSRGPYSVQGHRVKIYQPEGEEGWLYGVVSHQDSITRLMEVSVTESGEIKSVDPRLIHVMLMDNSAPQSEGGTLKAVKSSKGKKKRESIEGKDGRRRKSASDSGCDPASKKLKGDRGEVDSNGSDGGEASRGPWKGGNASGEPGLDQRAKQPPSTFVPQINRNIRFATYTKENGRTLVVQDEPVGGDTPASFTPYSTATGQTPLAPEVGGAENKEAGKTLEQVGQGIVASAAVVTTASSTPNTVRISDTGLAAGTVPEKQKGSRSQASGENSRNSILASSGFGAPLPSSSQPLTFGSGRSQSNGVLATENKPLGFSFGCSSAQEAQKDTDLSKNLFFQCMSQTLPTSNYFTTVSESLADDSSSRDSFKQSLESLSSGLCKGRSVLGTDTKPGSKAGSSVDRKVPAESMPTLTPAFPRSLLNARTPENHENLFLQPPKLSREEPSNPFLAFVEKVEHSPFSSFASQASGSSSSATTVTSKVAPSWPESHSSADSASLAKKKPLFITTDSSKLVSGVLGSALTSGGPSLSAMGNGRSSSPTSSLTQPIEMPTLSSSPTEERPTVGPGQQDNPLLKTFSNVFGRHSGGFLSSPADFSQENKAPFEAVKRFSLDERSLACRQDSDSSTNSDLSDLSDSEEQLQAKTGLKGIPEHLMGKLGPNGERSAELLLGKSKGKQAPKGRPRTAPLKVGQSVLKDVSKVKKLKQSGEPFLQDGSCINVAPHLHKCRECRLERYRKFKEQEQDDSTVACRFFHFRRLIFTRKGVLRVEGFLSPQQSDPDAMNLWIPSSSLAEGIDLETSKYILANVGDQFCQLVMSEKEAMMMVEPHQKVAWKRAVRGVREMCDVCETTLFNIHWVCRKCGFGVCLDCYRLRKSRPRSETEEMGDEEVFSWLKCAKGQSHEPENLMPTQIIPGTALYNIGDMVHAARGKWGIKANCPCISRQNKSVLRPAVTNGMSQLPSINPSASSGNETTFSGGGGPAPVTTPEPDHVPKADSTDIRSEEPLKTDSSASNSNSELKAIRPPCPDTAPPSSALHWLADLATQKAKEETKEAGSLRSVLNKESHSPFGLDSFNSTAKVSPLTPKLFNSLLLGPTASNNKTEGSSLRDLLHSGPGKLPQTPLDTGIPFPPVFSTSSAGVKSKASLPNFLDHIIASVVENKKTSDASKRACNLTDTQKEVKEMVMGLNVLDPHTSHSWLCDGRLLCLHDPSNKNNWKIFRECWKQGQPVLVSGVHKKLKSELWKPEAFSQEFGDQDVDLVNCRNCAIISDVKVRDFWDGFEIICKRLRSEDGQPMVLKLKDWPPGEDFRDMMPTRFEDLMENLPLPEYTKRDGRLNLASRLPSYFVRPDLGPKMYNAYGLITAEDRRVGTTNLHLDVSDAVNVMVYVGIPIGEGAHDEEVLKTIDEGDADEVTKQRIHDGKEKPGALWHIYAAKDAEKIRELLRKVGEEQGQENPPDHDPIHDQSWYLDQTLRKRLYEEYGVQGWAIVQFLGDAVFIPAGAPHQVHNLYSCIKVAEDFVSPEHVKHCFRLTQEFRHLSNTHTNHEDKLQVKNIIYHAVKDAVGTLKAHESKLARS
UniProt O43736: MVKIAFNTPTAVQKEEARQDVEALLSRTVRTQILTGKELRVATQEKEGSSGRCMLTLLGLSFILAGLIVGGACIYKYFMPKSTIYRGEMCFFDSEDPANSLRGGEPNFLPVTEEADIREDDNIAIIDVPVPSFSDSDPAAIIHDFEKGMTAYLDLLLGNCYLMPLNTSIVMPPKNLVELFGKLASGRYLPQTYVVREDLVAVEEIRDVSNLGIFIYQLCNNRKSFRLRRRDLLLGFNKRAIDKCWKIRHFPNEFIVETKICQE
UniProt P38570: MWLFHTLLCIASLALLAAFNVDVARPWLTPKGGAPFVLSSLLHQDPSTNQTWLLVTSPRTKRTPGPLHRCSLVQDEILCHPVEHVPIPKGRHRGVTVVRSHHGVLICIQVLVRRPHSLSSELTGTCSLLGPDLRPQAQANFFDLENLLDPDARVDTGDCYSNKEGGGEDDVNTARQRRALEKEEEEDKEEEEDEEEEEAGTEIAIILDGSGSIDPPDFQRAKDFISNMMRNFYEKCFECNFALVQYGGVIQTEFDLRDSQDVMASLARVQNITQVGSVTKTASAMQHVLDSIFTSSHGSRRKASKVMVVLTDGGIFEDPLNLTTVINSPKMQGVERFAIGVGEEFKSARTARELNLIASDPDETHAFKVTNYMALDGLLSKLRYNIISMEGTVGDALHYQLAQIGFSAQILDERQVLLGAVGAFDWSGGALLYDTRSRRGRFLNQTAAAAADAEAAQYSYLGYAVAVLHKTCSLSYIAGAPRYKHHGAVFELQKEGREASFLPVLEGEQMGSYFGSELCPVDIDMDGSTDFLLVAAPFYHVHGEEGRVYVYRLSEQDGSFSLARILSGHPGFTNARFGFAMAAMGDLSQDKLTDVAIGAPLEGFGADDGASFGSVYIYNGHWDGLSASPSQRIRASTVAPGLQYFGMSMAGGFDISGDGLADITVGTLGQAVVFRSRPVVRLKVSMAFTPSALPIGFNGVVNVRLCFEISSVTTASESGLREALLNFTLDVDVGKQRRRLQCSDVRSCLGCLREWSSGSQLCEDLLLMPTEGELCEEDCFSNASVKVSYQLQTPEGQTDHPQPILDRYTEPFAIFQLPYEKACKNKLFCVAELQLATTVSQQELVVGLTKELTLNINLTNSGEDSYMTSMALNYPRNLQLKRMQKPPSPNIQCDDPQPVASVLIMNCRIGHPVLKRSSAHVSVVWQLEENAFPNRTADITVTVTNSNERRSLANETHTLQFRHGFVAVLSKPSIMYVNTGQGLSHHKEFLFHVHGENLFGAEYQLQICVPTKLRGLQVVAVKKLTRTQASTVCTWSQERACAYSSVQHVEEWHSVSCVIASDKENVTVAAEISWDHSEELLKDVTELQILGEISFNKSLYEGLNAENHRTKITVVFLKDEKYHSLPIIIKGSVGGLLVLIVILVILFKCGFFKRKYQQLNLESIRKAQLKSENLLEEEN
UniProt Q86U28: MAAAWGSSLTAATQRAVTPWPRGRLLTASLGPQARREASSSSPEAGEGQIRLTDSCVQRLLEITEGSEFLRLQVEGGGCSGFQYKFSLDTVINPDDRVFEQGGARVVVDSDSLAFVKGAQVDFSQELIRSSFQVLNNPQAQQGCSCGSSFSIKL

How the values were obtained:
Assay in all cases: log2 fold change, soluble protein after heating vs DMSO (PISA); higher = thermal stabilisation; K562 lysate, 10 uM; active = over 0.2 and 3.5 SD of the protein, either way, in both replicates (recomputed)
vemurafenib = compound: CCCS(=O)(=O)Nc1ccc(F)c(C(=O)c2c[nH]c3ncc(-c4ccc(Cl)cc4)cc23)c1F [vemurafenib]
How it was run: (§1)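 Thermal stability, expressed as log-two fold change relative to solvent controls, is given from duplicates. Crude K562 extract in PBS pH 7.4 with 1 mM MgCl2, at 1 mg/mL protein, was treated with 10 μM compound for 30 min and heated in aliquots for 3 min across 48°C-58°C. After pooling, adjustment to 0.5% NP-40 at 4°C and centrifugation at 21,000xg for 90 min, supernatant protein was measured by TMTpro 16plex LC-MS/MS with channel sums equalised.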

[1] = compound: CCCS(=O)(=O)Nc1ccc(F)c(C(=O)c2c[nH]c3ncc(Cl)cc23)c1F
How it was run: as §1

barasertib = compound: CCN(CCCOc1ccc2c(Nc3cc(CC(=O)Nc4cccc(F)c4)[nH]n3)ncnc2c1)CCOP(=O)(O)O [barasertib]
How it was run: as §1

[2] = compound: CC[C@@H]1C(=O)N(C)c2cnc(Nc3ccc(C(=O)NC4CCN(C)CC4)cc3OC)nc2N1C1CCCC1
How it was run: as §1

volasertib = compound: CC[C@@H]1C(=O)N(C)c2cnc(Nc3ccc(C(=O)N[C@H]4CC[C@H](N5CCN(CC6CC6)CC5)CC4)cc3OC)nc2N1C(C)C [volasertib]
How it was run: as §1

[3] = compound: CCn1c(C(=O)N(C2CC2)C2CC2)cc2c3c(ncn3C)c(Nc3cc(C)n(C)n3)nc21
How it was run: as §1

[4] = compound: CCn1cc(-c2ccnc3[nH]c(-c4cccc(CN(C)C)c4)cc23)c(-c2ccc(NC(=O)N(C)C)cc2)n1
How it was run: as §1

[5] = compound: CN1CCC(CNc2ccc3ncc(-c4cccc(OC(F)(F)F)c4)n3n2)CC1
How it was run: as §1

saracatinib = compound: CN1CCN(CCOc2cc(OC3CCOCC3)c3c(Nc4c(Cl)ccc5c4OCO5)ncnc3c2)CC1 [saracatinib]
How it was run: as §1

sotrastaurin = compound: CN1CCN(c2nc(C3=C(c4c[nH]c5ccccc45)C(=O)NC3=O)c3ccccc3n2)CC1 [sotrastaurin]
How it was run: as §1

Measured: log2 fold change

IRGQ (UniProt Q8WZA9)
inactive: vemurafenib -0.003 | [1] 0.007 | barasertib 0.084 | [2] 0.01 | volasertib -0.011 | [3] -0.013 | [4] -0.025 | [5] 0.013 | saracatinib 0.044 | sotrastaurin -0.002

KCTD9 (UniProt Q7L273)
inactive: vemurafenib 0.021 | [1] 0.025 | barasertib 0.014 | [2] -0.006 | volasertib -0.009 | [3] -0.055 | [4] -0.019 | [5] -0.007 | saracatinib 0.034 | sotrastaurin -0.018

ITPKA (UniProt P23677)
inactive: vemurafenib -0.007 | [1] 0.019 | barasertib 0.041 | [2] -0.105 | volasertib -0.065 | [3] -0.03 | [4] 0 | [5] 0.054 | saracatinib 0.013 | sotrastaurin -0.045

IQGAP2 (UniProt Q13576)
inactive: vemurafenib 0.018 | [1] 0.022 | barasertib 0.029 | [2] -0.052 | volasertib -0.077 | [3] 0.023 | [4] 0 | [5] -0.082 | saracatinib 0.012 | sotrastaurin 0.021

KATNB1 (UniProt Q9BVA0)
inactive: vemurafenib -0.024 | [1] 0.001 | barasertib 0.032 | [2] -0.087 | volasertib -0.02 | [3] 0.049 | [4] 0.039 | [5] -0.026 | saracatinib -0.044 | sotrastaurin 0.019

KCTD10 (UniProt Q9H3F6)
inactive: vemurafenib 0.062 | [1] -0.02 | barasertib 0.082 | [2] -0.007 | volasertib 0.004 | [3] -0.029 | [4] 0.193 | [5] -0.055 | saracatinib 0.012 | sotrastaurin -0.027

IPO4 isoform 2 (UniProt Q8TEX9)
inactive: vemurafenib 0.033 | [1] 0.026 | barasertib 0.008 | [2] 0.004 | volasertib -0.018 | [3] 0.009 | [4] -0.117 | [5] 0.038 | saracatinib -0.016 | sotrastaurin 0.018

IST1 (UniProt P53990)
inactive: vemurafenib 0 | [1] -0.01 | barasertib -0.035 | [2] -0.002 | volasertib -0.003 | [3] 0.033 | [4] 0.001 | [5] -0.001 | saracatinib -0.005 | sotrastaurin -0.033

ITGB5 (UniProt P18084)
inactive: vemurafenib 0.069 | [1] -0.007 | barasertib 0.027 | [2] 0.035 | volasertib 0.026 | [3] 0.001 | [4] -0.073 | [5] 0.05 | saracatinib -0.026 | sotrastaurin -0.011

KAT14 (UniProt Q9H8E8)
inactive: vemurafenib 0.032 | [1] -0.026 | barasertib 0.078 | [2] 0.119 | volasertib -0.018

JPT1 (UniProt Q9UK76)
inactive: vemurafenib 0.014 | [1] -0.019 | barasertib 0.105 | [2] 0.061 | volasertib 0.023 | [3] -0.014 | [4] -0.019 | [5] 0.014 | saracatinib -0.008 | sotrastaurin -0.015

Random excerpt: 2 entries already listed.
IRGQ (UniProt Q8WZA9)
inactive: vemurafenib -0.003 | [1] 0.007 | barasertib 0.084 | [2] 0.01 | volasertib -0.011 | [3] -0.013 | [4] -0.025 | [5] 0.013 | saracatinib 0.044 | sotrastaurin -0.002

IST1 (UniProt P53990)
inactive: vemurafenib 0 | [1] -0.01 | barasertib -0.035 | [2] -0.002 | volasertib -0.003 | [3] 0.033 | [4] 0.001 | [5] -0.001 | saracatinib -0.005 | sotrastaurin -0.033

Continued:

IPO8 (UniProt O15397)
inactive: vemurafenib 0.014 | [1] 0.031 | barasertib 0.04 | [2] 0.012 | volasertib -0.048 | [3] 0.05 | [4] -0.021 | [5] -0.033 | saracatinib 0.004 | sotrastaurin 0.026

KAT8 (UniProt Q9H7Z6)
inactive: vemurafenib -0.022 | [1] 0.022 | barasertib 0.063 | [2] 0.043 | volasertib -0.009 | [3] 0.007 | [4] -0.017 | [5] 0.045 | saracatinib 0.065 | sotrastaurin 0.071

KARS1 (UniProt Q15046)
inactive: vemurafenib 0.003 | [1] -0.002 | barasertib 0.002 | [2] -0.072 | volasertib -0.026 | [3] 0.024 | [4] 0.046 | [5] -0.052 | saracatinib 0.004 | sotrastaurin 0.004

ISYNA1 (UniProt Q9NPH2)
inactive: vemurafenib 0.019 | [1] 0.008 | barasertib 0.002 | [2] -0.013 | volasertib 0.035 | [3] -0.012 | [4] -0.063 | [5] 0.11 | saracatinib 0.011 | sotrastaurin 0.016

IPO13 (UniProt O94829)
inactive: vemurafenib -0.003 | [1] 0.012 | barasertib 0.068 | [2] -0.004 | volasertib -0.074 | [3] -0.003 | [4] 0.047 | [5] -0.064 | saracatinib 0.045 | sotrastaurin 0.048

KCTD5 (UniProt Q9NXV2)
inactive: vemurafenib 0.012 | [1] 0.03 | barasertib 0.005 | [2] 0.08 | volasertib -0.007 | [3] 0.023 | [4] -0.049 | [5] 0.033 | saracatinib 0.01 | sotrastaurin -0.045

ITGAV (UniProt P06756)
inactive: vemurafenib 0.012 | [1] 0.022 | barasertib -0.038 | [2] 0.055 | volasertib 0 | [3] -0.03 | [4] -0.01 | [5] 0.036 | saracatinib 0.005 | sotrastaurin 0.011

IPO9 (UniProt Q96P70)
inactive: vemurafenib -0.004 | [1] 0.008 | barasertib 0.003 | [2] -0.001 | volasertib 0.022 | [3] 0.007 | [4] -0.106 | [5] 0.058 | saracatinib -0.002 | sotrastaurin 0.008

KCTD15 (UniProt Q96SI1)
inactive: vemurafenib 0.016 | [1] -0.001 | barasertib -0.013 | [2] -0.081 | volasertib 0.002 | [3] 0.05 | [4] 0.035 | [5] 0.023 | saracatinib 0.011 | sotrastaurin -0.007

IRF2BPL (UniProt Q9H1B7)
inactive: vemurafenib -0.039 | [1] 0.026 | barasertib 0.024 | [2] 0.04 | volasertib 0.001 | [3] 0.022 | [4] -0.195 | [5] 0.111 | saracatinib 0.025 | sotrastaurin -0.005

IQGAP1 (UniProt P46940)
inactive: vemurafenib -0.035 | [1] -0.005 | barasertib 0.002 | [2] 0.002 | volasertib -0.023 | [3] 0.004 | [4] -0.014 | [5] -0.017 | saracatinib 0.015 | sotrastaurin 0.01

JPT2 isoform 3 (UniProt Q9H910)
inactive: vemurafenib 0.03 | [1] 0.002 | barasertib 0.002 | [2] 0.031 | volasertib 0.03 | [3] -0.02 | [4] 0.015 | [5] 0.011 | saracatinib 0 | sotrastaurin -0.001

KDM3B (UniProt Q7LBC6)
inactive: vemurafenib -0.004 | [1] 0.037 | barasertib 0.026 | [2] 0.013 | volasertib -0.035 | [3] 0.002 | [4] -0.072 | [5] 0.056 | saracatinib 0.026 | sotrastaurin -0.013

ITM2A (UniProt O43736)
inactive: vemurafenib -0.051 | [1] 0.029 | barasertib 0.18 | [2] 0.102 | volasertib -0.005 | [3] -0.027 | [4] 0.091 | [5] -0.045 | saracatinib -0.006

IRF2 (UniProt P14316)
inactive: vemurafenib -0.024 | [1] 0.057 | barasertib -0.051 | [2] 0.057 | volasertib 0.011 | [3] 0.038 | [4] 0.019 | [5] 0.053 | saracatinib -0.086 | sotrastaurin 0.086

ITGAE (UniProt P38570)
inactive: vemurafenib 0.108 | [1] -0.064 | barasertib -0.051 | [2] 0.166 | volasertib 0.051 | [3] -0.087 | [4] -0.533 | [5] 0.077

ISCA2 (UniProt Q86U28)
inactive: vemurafenib -0.171 | [1] 0.03 | barasertib 0.091 | [2] -0.013 | volasertib -0.015 | [3] 0.011 | [4] -0.079 | [5] -0.014 | saracatinib -0.018 | sotrastaurin -0.009

ITGA5 (UniProt P08648)
inactive: vemurafenib 0.009 | [1] 0.014 | barasertib -0.055 | [2] 0.008 | volasertib 0.025 | [3] -0.008 | [4] 0.005 | [5] 0.03 | saracatinib 0.011 | sotrastaurin 0.018

ITPK1 (UniProt Q13572)
inactive: vemurafenib 0.011 | [1] 0.012 | barasertib -0.048 | [2] 0.038 | volasertib -0.135 | [3] 0.035 | [4] -0.084 | [5] -0.037 | saracatinib 0.066 | sotrastaurin -0.016
